According to US20160348113:
At least one result comes from cells or an extract, where the contact may be indirect. For some of these results: Construct, isoform or probe ends are uncertain for at least one entry. For some of these results: No signal at the amounts used counts as a negative.

Protein sequences, listed by entry. Tags and fused reporters are not part of them.
UniProt Q96RJ3, whole entry: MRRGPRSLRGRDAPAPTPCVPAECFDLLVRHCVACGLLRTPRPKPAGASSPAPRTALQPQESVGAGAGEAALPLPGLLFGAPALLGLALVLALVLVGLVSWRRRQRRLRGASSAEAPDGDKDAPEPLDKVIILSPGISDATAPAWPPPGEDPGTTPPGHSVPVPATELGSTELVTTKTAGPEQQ

Columns and labels:
[1] = target: BAFF-R on Jeko-1 cells (Homo sapiens) (UniProt Q96RJ3); assay: binding assay; conditions: protein on the cell surface
[2] = target: BAFF-R on Jeko-1 cells (Homo sapiens) (UniProt Q96RJ3); assay: flow cytometry; conditions: 2'-F pyrimidines (2'-F-C, 2'-F-U); Cy3-labelled; binding and internalization in BAFF-R+ Jeko-1 cells, 37 C; protein on the cell surface; label: 5'-32P or Cy3
[3] = test system: CCRF-CEM cell surface (BAFF-R negative control cells) (Homo sapiens); assay: binding assay; conditions: protein on the cell surface
[4] = 2'-F pyrimidines in transcribed aptamer strand, Cy3-labelled chimera, confocal internalization in Jeko-1, label: 32P, variant of R-1 aptamer

GGGAGGACGAUGCGGGAGGCUCAACAAUGAUAGAGCCCGCAAUGUUGAUAGUUGUGCCCAGUCUGCAGACGACUCGCCCGAUUUUUUUUUCAGUCGUAUCUUUCUGCAGCUUCCGU / GGAAGCUGCAGAAAGAUACGACUGA [R-1-STAT3 27-mer SWAP chimera]
binding result [1, 4]: binds

GGGAGGACGAUGCGGAUAACUAUUGUGCUAGAGGGCUUAUUUAUGUGAGCCGGUUGAUAGUUGCGCAGACGACUCGCCCGA [R-14 aptamer]
binding result ([1]; 2'-F pyrimidines (2'-F-C, 2'-F-U), Cy3-labelled, confocal, internalized in Jeko-1 cells, label: 5'-32P or Cy3): binds

GGGAGGACGAUGCGGGAGGCUCAACAAUGAUAGAGCCCGCAAUGUUGAUAGUUGUGCCCAGUCUGCAGACGACUCGCCCGAUUUUUUUUGAGAACGGAAGCUGCAGAAAGAUACGA / GUAUCUUUCUGCAGCUUCCGUUCUC [R-1-STAT3 27-mer OVH chimera]
binding result [1, 4]: binds

GGGAGGACGAUGCGGGAGGCUCAACAAUGAUAGAGCCCGCAAUGUUGAUAGUUGUGCCCAGUCUGCAGACGACUCGCCCGA [R-1 aptamer]
binding result [2]: binds | binding result ([3]; 2'-F pyrimidines (2'-F-C, 2'-F-U), Cy3-labelled, confocal, no uptake by CCRF-CEM control cells, label: 5'-32P or Cy3): no binding

GGGAGGACGAUGCGGGAGGCUCAACAAUGAUAGAGCCCGCAAUGUUGAUAGUUGUGCCCAGUCUGCAGACGACUCGCCCGAUUCCACAGAUGUGAAGUUCAUUUCCAA / UUGGAAAUGAACUUCACAUCUGUGGCA [R-1 D-1 chimera (CCND1 siRNA design 1)]
binding result ([3]; 2'-F pyrimidines in transcribed aptamer-sense strand, Cy3-labelled chimera, no uptake by CEM cells, label: 32P, variant of R-1 aptamer): no binding | binding result ([1]; 2'-F pyrimidines in transcribed aptamer-sense strand, Cy3-labelled chimera, confocal internalization in Jeko-1, label: 32P, variant of R-1 aptamer): binds
